Data on 1 sequence can be found in patent publication US20200362024A1 (IMPERIAL INNOVATIONS LIMITED, priority 2009, published 2020).

Where a sequence shows no end group, the ends are not given.

The nature of this data set: peptide made by a vendor. To be noted: whole synthesis.

For RSFSTFDKDTDSAITNCALSYKGAFWYRN, the outcome is reported as “The facility was unable to synthesize peptide 7”.
